Data published in PubChem BioAssay AID493014 (National Center for Advancing Translational Sciences (NCATS), 2011).
About 170 (0.05%) of roughly 340,000 compounds were called active. The shares of active, inactive and inconclusive entries below differ from those in the screen. The call rests on the fitted dose curve; in most records, active means well fitted inhibition curve with a large enough effect in the signal ratio, with a control signal flat (not every such curve was filed as active); inconclusive means small, poorly fitted or top-dose-only effect, or effect the other way, or a change in a side signal; inactive means flat fitted curve, though single readings scatter; the % refers to the signal ratio. Potencies of inconclusive entries are doubtful fits and often do not repeat.
Potency means the concentration at half of the fitted maximal effect.

Assay: qHTS Assay to Find Inhibitors of Chronic Active B-Cell Receptor Signaling;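 on activity change, negative = inhibition: plate controls were basal doxycycline-induced cells for no effect and cells given 10 µM MG132 for full effect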
Conditions: ABC-DLBCL IkBa-CBG/CBR reporter, luminescence ratio (green luciferase fused to IkBa over red control in TMD8 lymphoma cells), 4 h; activity change, negative = inhibition: at 46.1 µM (top of the series)
In short: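 Cell line TMD8 (human ABC DLBCL), stably expressing tet-inducible CBG68-IkBa fusion and CBR; IMDM/0.5% FBS; cpd up to 46 uM; dox induction, 4 h, 37C/5% CO2; dual luminescence; green/red ratio; MG132 control.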
For Cc1ccc(C(=O)CCC(=O)NNC(=O)c2ccccc2O)cc1, the activity change, negative = inhibition was inconclusive: 2.07%.
For CCN1CCc2nc3sc(C(=O)c4ccc(F)cc4)c(N)c3cc2C1, the Potency was inconclusive: 0.891 µM [rising, partial curve, poor fit].
In the case of CC(=O)c1cn(CC(=O)NCc2cccnc2)c2ccccc12, the activity change, negative = inhibition is reported as inconclusive: -11%.
For COc1ccccc1NC1=NC(c2ccc(Cl)cc2)N=C(N)N1 (stereo unspecified), the Potency was inconclusive: 20.6 µM [falling, partial curve].
For Cc1ccc(C(=O)N(CC(=O)Nc2ccc(Cl)c(Cl)c2)Cc2ccco2)cc1, the activity change, negative = inhibition was “inactive”.
With COc1ccc(NC(=O)COC(=O)CCCOc2ccc(Cl)cc2Cl)cc1 the Potency was inconclusive: 20.6 µM [rising, partial curve, poor fit].
For COc1ccc(OC)c(S(=O)(=O)N2CCC(C(=O)NC3CCCCC3)CC2)c1, the activity change, negative = inhibition was “inactive”.
For O=C(O)c1ccccc1NC(=S)NC(NC(=O)c1ccccc1[N+](=O)[O-])C(Cl)(Cl)Cl (stereo unspecified), the activity change, negative = inhibition was inconclusive: -1.01%.
For Cc1cccc(CNC(=O)C2CCC(=O)N(C3CCCCCC3)C2)c1 (stereo unspecified), the activity change, negative = inhibition was “inactive”.
With Cc1ccc2nc(-c3ccc(SCC(=O)O)nc3)[nH]c2c1 the activity change, negative = inhibition was inconclusive: -2.15%.
For CCCCn1c(NCc2ccc(N(C)C)cc2)nc2ccccc21, the activity change, negative = inhibition was “inactive”.
For COc1ccccc1CN1C[C@@H]2C[C@@H](c3cccc(C)c3)N3CCC[C@@]23C1=O, the activity change, negative = inhibition was inconclusive: -11.3%.
In the case of CN(C)CCCOc1ccc(C(C)(C)c2ccccc2)cc1, the activity change, negative = inhibition is reported as inconclusive: -0.342%.
For COc1cccc(CNc2ccc(S(N)(=O)=O)cc2)c1OC, the activity change, negative = inhibition was “inactive”.
With CC1=C(C#N)C(=O)NC(=O)/C1=C\c1ccc(-c2ccc(C)cc2[N+](=O)[O-])o1 the activity change, negative = inhibition was “inactive”.
With CCc1cc(-c2n[nH]c(=S)n2-c2ccccc2C)cs1 the Potency was inconclusive: 1.64 µM [falling, partial curve].
For COC(=O)c1ccc2c(c1)C(C)(C)C(/C=C/c1ccccc1O)=[N+]2C, the Potency was inconclusive: 3.55 µM [cytotoxic, partial curve].
For CC(C)S(=O)(=O)c1csc(NC(=O)Nc2cc(Cl)ccc2Cl)c1Cl, the activity change, negative = inhibition was inconclusive: 26.6%.
With CCCCOC(=O)c1ccc(NC(=O)C(=O)NCCN(C)C)cc1 the activity change, negative = inhibition was inconclusive: 10.6%.
In the case of CC(C)C1C(C#N)=C(N)Oc2n[nH]c(-c3ccc4ccccc4c3)c21 (stereo unspecified), the Potency is reported as inconclusive: 20.6 µM [falling, partial curve, poor fit].
With O=C(CN1CCN(S(=O)(=O)c2cc(Cl)ccc2Cl)CC1)c1ccc(O)c(O)c1 the activity change, negative = inhibition was inconclusive: -15.1%.
In the case of Cc1nc2cc(NC(=O)c3ccco3)ccc2n1C, the Potency is reported as inconclusive: 35.5 µM [rising, single point].
For COc1ccc(CNC(=O)CCc2cc(OC)c(OC)c(OC)c2)cc1, the activity change, negative = inhibition was inconclusive: -0.187%.
In the case of Cc1ccc2c(COC(=O)c3cnc(C)cn3)cc(=O)oc2c1, the activity change, negative = inhibition is reported as inconclusive: 5.11%.
For CSc1ccc(CSCC(=O)N2CCN(S(=O)(=O)c3ccc(C)cc3C)CC2)cc1, the activity change, negative = inhibition was inconclusive: 1.06%.
With O=C(Nc1cccc(Br)c1)c1cc2ccccc2o1 the Potency was inconclusive: 22.4 µM [falling, partial curve].
For COc1ccc(CNC(=O)c2ccc(N3CCOCC3)c([N+](=O)[O-])c2)cc1, the activity change, negative = inhibition was inconclusive: -6.71%.
For Cc1cccc(N2CCN(C(=S)NCc3ccco3)CC2)c1C, the activity change, negative = inhibition was “inactive”.
For CCCCC1CN2CCc3c([nH]c4ccccc34)C2(C)C1 (stereo unspecified), the Potency was inconclusive: 35.5 µM [falling, single point].
In the case of Clc1cccc(-n2ncc3c(NCCCn4ccnc4)ncnc32)c1, the activity change, negative = inhibition is reported as inconclusive: 14%.
In the case of c1ccc(-c2nc3nc4ccccc4nc3n2Cc2ccco2)cc1, the Potency is reported as inconclusive: 22.4 µM [falling, single point].
For COc1ccc(-c2cc(C(=O)N3CCc4ccccc4C3)no2)cc1OC, the Potency was inconclusive: 25.1 µM [falling, partial curve, poor fit].
With Cc1ccc2cc(C=O)c(Cl)nc2c1 the Potency was inconclusive: 20 µM [falling, partial curve].
With COc1ccc(-c2csc(-c3ccccc3)n2)c(OC)c1 the activity change, negative = inhibition was inconclusive: -9.67%.
For CCNC(=S)NNC(=O)c1cc(-c2ccc(OCC)cc2)nc2ccccc12, the Potency was inconclusive: 14.1 µM [falling, partial curve].
For O=C(Nc1ccc(NC(=O)c2cccs2)cc1Cl)c1ccco1, the activity change, negative = inhibition was inconclusive: 1.41%.
With C/C(N)=C(/C#N)C(=O)CSc1nc2ccccc2c(=O)n1-c1ccccc1C the activity change, negative = inhibition was “inactive”.
With COc1cc2c(c(O)c1OC)-c1c(cc(OC)c(OC)c1OC)C[C@@H](C)[C@@H](C)C2 the activity change, negative = inhibition was “inactive”.
For COc1ccccc1NC(=O)CN(c1ccccc1C)S(C)(=O)=O, the Potency was inconclusive: 20 µM [falling, partial curve, poor fit].
In the case of COc1ccc(-c2onc(C)c2-c2cnn(-c3ccccc3)c2)c(O)c1, the Potency is reported as inconclusive: 7.94 µM [falling, partial curve, poor fit].
In the case of CCc1ccc(NC(=O)CSc2nc3ccccc3nc2N2CCCCC2)cc1, the activity change, negative = inhibition is reported as inconclusive: 19.8%.
With CCOC(=O)c1sc2nc3c(cc2c1N)COC(C)(C)C3 the Potency was inconclusive: 1.84 µM [rising, full curve, poor fit].
For CCn1c(C)nc2cc(C(=O)NNC(=S)Nc3ccc(F)cc3)ccc21, the activity change, negative = inhibition was inconclusive: 0.409%.
With Cc1ccc(OCC(O)CN2CCN(Cc3ccc4c(c3)OCO4)CC2)c(C)c1 (stereo unspecified) the activity change, negative = inhibition was “inactive”.
In the case of CCn1nc(NC(=O)C2CCCO2)c2cc3cccc(C)c3nc21 (stereo unspecified), the activity change, negative = inhibition is reported as “inactive”.
With C=CCNc1oc(-c2cccc3ccccc23)nc1C#N the activity change, negative = inhibition was inconclusive: 16.6%.
For O=C(N/N=C/c1ccc(N2CCOCC2)o1)c1cccc(F)c1, the activity change, negative = inhibition was inconclusive: -17.3%.
For CC(CN1CCOCC1)OC(=O)c1cccc(Cl)c1 (stereo unspecified), the activity change, negative = inhibition was inconclusive: 0.447%.
For CC1(C)CC(=O)C2=C(C1)Nc1cc3c(cc1C2c1ccc2c(c1)OCO2)OCO3 (stereo unspecified), the activity change, negative = inhibition was “inactive”.
In the case of CC(=O)OC1COC(n2c(O)c(N=NC(N)=S)c3ccccc32)C(OC(C)=O)C1OC(C)=O (stereo unspecified), the activity change, negative = inhibition is reported as “inactive”.
In the case of COc1cc(CNCc2cccnc2)ccc1OCC(=O)NC1CCCCC1, the activity change, negative = inhibition is reported as inconclusive: 4.19%.
For COc1ccc(S(=O)(=O)NCC(c2ccco2)N2CCN(c3ccc(F)cc3)CC2)cc1C (stereo unspecified), the activity change, negative = inhibition was “inactive”.
For COCCCNC(=S)N/N=C/c1ccc2ccccc2c1, the Potency was inconclusive: 35.5 µM [falling, single point].
For Cc1ccc(NC(=O)c2nc[nH]c2C(=O)NCc2ccccc2)cc1, the activity change, negative = inhibition was “inactive”.
In the case of Cc1cc(C)c2c(=O)[nH]c(SCC(=O)c3ccc(C)c(C)c3)nc2n1, the activity change, negative = inhibition is reported as inconclusive: 9.68%.
For O=C(/C=C/c1ccc2c(c1)OCO2)c1ccco1, the activity change, negative = inhibition was inconclusive: -8.27%.
In the case of CCCCCCCC#Cc1ccccc1/C=N/S(=O)c1ccc(C)cc1 (stereo unspecified), the activity change, negative = inhibition is reported as “inactive”.
With Cc1cc(Nc2ccc(N3CCOCC3)cc2)c2cccc(C)c2n1 the activity change, negative = inhibition was inconclusive: -14.6%.
In the case of CCOc1ccc(C(CCc2ccccc2)NC(=O)c2ccccc2)cc1OCC (stereo unspecified), the activity change, negative = inhibition is reported as inconclusive: 4.7%.
With NS(=O)(=O)c1ccc(N2CCN(CCOc3ccc(Cl)cc3)CC2)nc1 the activity change, negative = inhibition was “inactive”.
With O=C(COC(=O)C1CC2CCCC(C1)C2=O)Nc1ccc(F)c(Cl)c1 (stereo unspecified) the Potency was inconclusive: 18.4 µM [falling, partial curve, poor fit].
In the case of CCc1ccc(N2C(=O)CN(Cc3cc(OC)c(OC)c(OC)c3)C2=S)cc1, the activity change, negative = inhibition is reported as inconclusive: -8.87%.
With C=CCc1c(C)nc2c(-c3ccccc3)cnn2c1N1CCOCC1 the activity change, negative = inhibition was inconclusive: 11.5%.
In the case of CCOC(=O)c1cnc2ccc(OCC)cc2c1N1CCN(C)CC1, the Potency is reported as inconclusive: 35.5 µM [falling, single point].
In the case of CC(=O)N(C)c1ccc(NC(=O)Nc2cccc3ccccc23)cc1, the Potency is reported as inconclusive: 11.2 µM [falling, partial curve].
For CCc1nn2c(N3CCOCC3)cc(C)nc2c1-c1ccccc1, the activity change, negative = inhibition was “inactive”.
For CC(CC(=O)Nc1cc([N+](=O)[O-])ccc1Cl)c1ccccc1 (stereo unspecified), the activity change, negative = inhibition was inconclusive: 7.58%.
In the case of COc1cc(Cl)ccc1OCc1cc(C(=O)N2CCCCC2c2cccnc2)no1 (stereo unspecified), the activity change, negative = inhibition is reported as “inactive”.
In the case of Cc1ccc(C)c(Cn2nnc3c(=O)[nH]c(C(=O)NCc4ccco4)nc32)c1, the activity change, negative = inhibition is reported as “inactive”.
With Cc1ccc(SCC(=O)NCCN2C(=O)CSC2=O)c(C)c1 the activity change, negative = inhibition was inconclusive: -0.274%.
With CCCOc1cccc(-c2nn(-c3ccccc3)cc2/C=C(\C#N)C(=O)NCCCn2ccnc2)c1 the activity change, negative = inhibition was “inactive”.
For COC(=O)c1ccc(NC(=O)C2CCCN2S(=O)(=O)c2ccc(OC)cc2)cc1 (stereo unspecified), the Potency was inconclusive: 3.66 µM [rising, full curve, poor fit].
With CC(C)(C)NC(=O)C(c1ccccn1)N(C(=O)c1csnn1)C1CCCC1 (stereo unspecified) the activity change, negative = inhibition was “inactive”.
With Cc1cccc2cc(CN(CCN3CCOCC3)C(=O)NCc3ccccc3)c(=O)[nH]c12 the activity change, negative = inhibition was inconclusive: -16.1%.
In the case of CCc1ccc(S(=O)(=O)/N=C2\C=C(Nc3ccc(C(=O)O)cc3)C(=O)c3ccccc32)cc1, the Potency is reported as inconclusive: 3.55 µM [falling, partial curve].
For COc1cc(NC(=O)C(CCSC)NS(=O)(=O)c2ccc3c(c2)oc(=O)n3C)cc(OC)c1 (stereo unspecified), the activity change, negative = inhibition was “inactive”.
In the case of COc1ccnc2c1c(=O)n(Cc1ccc(F)cc1)c(=O)n2C, the Potency is reported as inconclusive: 17.8 µM [falling, single point].
With O=C(NCCC(NS(=O)(=O)OCC(Cl)(Cl)Cl)c1ccccc1)C(F)(F)F (stereo unspecified) the activity change, negative = inhibition was “inactive”.
For COc1ccc(S(=O)(=O)N(CC(=O)NCc2cccnc2)Cc2ccccc2)cc1, the activity change, negative = inhibition was inconclusive: 4.32%.
For N/C(Cc1ccc([N+](=O)[O-])cc1)=N\OC(=O)c1ccccc1Br, the activity change, negative = inhibition was “inactive”.
In the case of Cc1sc(-n2c(C)cc(/C=C3\SC(=S)NC3=O)c2C)c(C#N)c1C, the activity change, negative = inhibition is reported as inconclusive: 10.9%.
